Results from the supplement of paper PMC12819154, “High-throughput peptide-centric local stability assay extends protein–ligand identification to membrane proteins, tissues and bacteria” (Nature Structural & Molecular Biology, 2025).
The other results are listed elsewhere or left out. Most entries show no effect beyond the scatter of the controls.

Chains of the proteins cited; added tags and fusions are not shown. Lines headed by an entry give the natural chain unless they say otherwise; changes in a name come on top.
UniProt Q9Y5X1: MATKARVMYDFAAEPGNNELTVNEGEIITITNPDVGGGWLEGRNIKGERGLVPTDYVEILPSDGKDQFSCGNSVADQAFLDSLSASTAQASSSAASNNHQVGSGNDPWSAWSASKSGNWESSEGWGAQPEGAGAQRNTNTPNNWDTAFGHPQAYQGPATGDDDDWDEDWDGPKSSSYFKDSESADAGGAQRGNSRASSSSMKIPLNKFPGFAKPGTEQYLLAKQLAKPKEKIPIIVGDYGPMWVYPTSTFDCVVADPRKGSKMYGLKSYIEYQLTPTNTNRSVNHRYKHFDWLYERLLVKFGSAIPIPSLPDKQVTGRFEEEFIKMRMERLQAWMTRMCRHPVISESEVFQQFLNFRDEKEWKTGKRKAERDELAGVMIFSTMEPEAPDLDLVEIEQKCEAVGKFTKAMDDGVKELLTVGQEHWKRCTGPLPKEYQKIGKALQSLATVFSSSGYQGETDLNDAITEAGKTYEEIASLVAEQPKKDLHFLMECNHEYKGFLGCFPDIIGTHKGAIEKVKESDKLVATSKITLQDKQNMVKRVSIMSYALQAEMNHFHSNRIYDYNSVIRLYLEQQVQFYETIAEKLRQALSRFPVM
UniProt Q9Y3I1: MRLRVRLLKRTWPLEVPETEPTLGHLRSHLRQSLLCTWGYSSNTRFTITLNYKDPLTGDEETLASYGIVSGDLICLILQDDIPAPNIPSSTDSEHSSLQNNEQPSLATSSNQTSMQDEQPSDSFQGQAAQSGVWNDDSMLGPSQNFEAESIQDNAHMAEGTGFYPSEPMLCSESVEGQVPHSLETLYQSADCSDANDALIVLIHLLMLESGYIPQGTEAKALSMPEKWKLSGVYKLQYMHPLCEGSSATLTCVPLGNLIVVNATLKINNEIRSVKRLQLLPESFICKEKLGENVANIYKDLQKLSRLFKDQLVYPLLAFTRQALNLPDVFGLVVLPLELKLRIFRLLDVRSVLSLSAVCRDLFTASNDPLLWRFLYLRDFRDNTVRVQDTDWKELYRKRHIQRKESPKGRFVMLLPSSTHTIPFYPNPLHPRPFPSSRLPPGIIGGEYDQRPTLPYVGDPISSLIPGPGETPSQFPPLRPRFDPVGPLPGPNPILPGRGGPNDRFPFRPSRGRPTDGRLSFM
UniProt Q9Y283: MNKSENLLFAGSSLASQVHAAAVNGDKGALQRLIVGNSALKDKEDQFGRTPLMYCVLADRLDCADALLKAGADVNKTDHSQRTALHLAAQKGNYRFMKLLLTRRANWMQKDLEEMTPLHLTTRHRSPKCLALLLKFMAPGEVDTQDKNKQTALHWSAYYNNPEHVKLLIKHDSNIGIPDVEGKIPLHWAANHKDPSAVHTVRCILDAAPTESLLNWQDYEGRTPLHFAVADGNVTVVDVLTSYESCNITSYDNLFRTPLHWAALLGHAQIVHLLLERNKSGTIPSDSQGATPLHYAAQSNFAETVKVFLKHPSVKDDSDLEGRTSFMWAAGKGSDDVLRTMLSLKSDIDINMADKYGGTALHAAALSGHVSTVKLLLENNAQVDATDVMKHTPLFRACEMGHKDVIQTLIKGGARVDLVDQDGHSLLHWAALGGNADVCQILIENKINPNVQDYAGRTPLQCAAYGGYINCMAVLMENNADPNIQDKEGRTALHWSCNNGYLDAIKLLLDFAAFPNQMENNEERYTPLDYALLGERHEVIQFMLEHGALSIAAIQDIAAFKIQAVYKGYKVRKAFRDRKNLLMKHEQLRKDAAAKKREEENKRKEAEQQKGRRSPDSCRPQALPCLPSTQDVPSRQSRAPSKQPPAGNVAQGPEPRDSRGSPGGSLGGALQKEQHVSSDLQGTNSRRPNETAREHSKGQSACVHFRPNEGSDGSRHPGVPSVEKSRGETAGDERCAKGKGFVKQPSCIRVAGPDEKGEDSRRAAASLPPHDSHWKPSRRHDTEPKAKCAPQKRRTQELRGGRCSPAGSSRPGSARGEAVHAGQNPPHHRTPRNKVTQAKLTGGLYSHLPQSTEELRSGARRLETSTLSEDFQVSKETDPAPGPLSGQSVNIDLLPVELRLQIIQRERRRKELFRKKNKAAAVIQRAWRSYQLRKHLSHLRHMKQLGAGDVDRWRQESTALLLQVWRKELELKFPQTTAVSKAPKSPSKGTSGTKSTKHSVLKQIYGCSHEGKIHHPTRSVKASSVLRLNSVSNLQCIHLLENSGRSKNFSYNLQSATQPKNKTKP
UniProt Q9Y5N5: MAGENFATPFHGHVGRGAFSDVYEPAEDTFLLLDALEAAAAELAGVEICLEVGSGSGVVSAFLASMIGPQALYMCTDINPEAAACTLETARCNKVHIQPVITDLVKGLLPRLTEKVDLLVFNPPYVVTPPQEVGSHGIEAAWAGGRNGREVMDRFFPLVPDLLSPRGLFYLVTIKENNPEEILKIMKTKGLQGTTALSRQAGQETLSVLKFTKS
UniProt Q9Y343: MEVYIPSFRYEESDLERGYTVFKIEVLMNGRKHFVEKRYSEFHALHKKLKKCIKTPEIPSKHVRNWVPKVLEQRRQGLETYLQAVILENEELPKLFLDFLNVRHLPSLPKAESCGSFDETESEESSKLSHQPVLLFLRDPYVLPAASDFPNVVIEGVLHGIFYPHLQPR
UniProt Q9Y3D8, whole entry: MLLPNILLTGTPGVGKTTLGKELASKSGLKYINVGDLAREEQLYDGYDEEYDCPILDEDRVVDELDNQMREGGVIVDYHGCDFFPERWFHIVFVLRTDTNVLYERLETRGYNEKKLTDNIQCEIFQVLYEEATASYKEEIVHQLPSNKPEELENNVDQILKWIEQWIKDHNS
UniProt Q9Y5B0: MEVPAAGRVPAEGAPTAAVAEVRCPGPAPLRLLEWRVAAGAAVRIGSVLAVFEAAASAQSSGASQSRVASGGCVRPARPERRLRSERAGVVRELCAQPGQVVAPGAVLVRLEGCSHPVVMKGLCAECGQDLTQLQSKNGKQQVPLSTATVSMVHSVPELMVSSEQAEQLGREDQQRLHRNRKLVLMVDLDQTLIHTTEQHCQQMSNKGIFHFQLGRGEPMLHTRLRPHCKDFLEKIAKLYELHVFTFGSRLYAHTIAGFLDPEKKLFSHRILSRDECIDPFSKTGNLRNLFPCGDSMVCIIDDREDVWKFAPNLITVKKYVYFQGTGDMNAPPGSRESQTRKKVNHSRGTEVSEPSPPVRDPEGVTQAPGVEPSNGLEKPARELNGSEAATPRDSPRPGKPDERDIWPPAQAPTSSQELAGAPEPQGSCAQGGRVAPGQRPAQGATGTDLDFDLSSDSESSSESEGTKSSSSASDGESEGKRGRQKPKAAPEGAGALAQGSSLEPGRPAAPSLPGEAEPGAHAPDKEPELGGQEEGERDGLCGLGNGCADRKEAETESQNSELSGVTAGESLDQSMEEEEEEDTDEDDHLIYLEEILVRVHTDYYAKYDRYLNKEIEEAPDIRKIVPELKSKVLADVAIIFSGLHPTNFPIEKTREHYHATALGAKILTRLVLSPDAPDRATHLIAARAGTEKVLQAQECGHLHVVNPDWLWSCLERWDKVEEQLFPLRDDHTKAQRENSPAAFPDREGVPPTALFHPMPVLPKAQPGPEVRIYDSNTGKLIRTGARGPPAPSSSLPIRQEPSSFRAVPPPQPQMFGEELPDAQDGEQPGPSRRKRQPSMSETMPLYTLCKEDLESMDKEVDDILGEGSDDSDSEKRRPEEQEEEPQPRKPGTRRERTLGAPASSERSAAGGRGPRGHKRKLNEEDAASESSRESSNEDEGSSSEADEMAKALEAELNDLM
UniProt Q9Y605: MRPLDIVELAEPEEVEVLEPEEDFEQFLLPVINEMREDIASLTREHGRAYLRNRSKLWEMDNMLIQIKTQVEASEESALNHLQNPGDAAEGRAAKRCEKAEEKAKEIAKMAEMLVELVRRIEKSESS
UniProt Q9Y6W5, whole entry: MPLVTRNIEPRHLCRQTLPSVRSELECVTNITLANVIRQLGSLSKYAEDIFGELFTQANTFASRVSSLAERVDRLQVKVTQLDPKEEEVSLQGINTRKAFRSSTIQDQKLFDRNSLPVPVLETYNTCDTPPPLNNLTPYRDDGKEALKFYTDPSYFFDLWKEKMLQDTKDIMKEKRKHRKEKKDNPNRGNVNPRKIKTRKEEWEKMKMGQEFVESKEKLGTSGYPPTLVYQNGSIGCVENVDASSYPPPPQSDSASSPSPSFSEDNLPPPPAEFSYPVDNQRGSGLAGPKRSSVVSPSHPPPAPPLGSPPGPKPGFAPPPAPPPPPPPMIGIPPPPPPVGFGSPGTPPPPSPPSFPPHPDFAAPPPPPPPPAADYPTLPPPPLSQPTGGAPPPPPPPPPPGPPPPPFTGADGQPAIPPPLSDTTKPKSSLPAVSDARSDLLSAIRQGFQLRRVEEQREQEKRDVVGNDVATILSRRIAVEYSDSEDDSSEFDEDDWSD
UniProt Q9Y3I0: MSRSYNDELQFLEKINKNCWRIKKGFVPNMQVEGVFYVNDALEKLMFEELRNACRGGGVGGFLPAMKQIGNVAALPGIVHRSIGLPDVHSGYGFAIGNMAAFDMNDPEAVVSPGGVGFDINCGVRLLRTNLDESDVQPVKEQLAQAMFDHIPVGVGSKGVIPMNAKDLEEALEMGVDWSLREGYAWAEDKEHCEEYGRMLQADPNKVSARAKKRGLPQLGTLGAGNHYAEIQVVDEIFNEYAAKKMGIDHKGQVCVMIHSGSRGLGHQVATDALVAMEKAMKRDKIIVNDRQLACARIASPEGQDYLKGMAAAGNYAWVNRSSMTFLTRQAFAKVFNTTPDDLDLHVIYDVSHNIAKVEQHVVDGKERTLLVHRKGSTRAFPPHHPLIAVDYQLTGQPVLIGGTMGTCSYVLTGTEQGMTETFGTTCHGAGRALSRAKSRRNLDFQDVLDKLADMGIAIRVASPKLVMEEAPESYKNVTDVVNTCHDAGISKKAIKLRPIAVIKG
UniProt Q9Y2T3: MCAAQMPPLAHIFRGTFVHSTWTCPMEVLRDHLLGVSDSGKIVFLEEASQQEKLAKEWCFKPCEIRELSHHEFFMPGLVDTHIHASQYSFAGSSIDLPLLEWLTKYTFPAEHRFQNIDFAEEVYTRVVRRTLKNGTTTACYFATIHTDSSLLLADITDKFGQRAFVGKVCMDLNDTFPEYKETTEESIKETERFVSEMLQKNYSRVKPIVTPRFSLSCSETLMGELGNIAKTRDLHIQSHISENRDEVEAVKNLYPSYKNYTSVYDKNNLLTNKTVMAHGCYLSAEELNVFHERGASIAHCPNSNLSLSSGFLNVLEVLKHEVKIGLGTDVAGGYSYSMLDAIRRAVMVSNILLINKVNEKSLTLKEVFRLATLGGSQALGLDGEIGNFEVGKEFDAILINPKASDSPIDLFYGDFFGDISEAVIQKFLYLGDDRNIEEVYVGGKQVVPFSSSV
UniProt Q9Y646: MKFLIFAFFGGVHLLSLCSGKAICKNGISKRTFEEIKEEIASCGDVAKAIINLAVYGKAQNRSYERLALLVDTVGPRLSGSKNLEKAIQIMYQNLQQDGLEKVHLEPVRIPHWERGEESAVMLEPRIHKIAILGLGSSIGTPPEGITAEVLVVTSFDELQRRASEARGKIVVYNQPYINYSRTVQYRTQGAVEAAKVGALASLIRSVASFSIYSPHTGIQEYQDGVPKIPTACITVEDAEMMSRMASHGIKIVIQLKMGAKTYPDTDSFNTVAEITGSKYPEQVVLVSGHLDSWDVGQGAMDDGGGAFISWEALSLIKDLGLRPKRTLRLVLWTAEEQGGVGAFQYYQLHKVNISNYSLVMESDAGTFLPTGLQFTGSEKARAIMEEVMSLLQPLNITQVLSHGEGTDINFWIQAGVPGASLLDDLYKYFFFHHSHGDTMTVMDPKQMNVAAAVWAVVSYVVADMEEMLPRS
UniProt Q9Y4X0: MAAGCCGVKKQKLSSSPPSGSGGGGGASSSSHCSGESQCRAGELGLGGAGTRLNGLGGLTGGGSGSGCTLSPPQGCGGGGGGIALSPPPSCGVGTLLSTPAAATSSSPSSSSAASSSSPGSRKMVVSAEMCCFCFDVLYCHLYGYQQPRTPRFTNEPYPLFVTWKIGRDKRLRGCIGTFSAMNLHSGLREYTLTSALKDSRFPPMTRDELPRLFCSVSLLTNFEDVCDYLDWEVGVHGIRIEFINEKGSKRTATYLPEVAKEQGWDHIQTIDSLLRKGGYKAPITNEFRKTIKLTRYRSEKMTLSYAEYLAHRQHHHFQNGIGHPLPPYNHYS
UniProt Q9Y365: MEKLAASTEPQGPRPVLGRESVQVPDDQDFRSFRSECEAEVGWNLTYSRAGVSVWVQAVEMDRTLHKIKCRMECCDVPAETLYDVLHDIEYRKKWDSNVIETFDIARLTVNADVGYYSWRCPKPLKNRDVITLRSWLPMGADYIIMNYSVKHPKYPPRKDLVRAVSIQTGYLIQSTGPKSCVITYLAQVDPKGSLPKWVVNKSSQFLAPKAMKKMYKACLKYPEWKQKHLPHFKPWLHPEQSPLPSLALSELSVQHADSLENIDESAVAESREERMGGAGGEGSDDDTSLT
UniProt Q9Y3E1: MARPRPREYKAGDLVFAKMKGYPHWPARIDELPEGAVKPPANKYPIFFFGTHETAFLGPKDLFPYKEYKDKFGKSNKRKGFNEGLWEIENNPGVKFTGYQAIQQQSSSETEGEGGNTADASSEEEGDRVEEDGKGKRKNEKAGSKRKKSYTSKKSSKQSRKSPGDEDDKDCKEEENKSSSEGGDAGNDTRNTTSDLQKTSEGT

compound: Cc1nc(Nc2ncc(C(=O)Nc3c(C)cccc3Cl)s2)cc(N2CCN(CCO)CC2)n1 [dasatinib]; experiment: log2 fold change of tryptic peptide abundance, ligand vs vehicle (limited proteolysis) (log2 ratio); higher = more trypsin-susceptible (destabilized); details: ligand concentration: 5 uM; sample: K562 cleared lysate

Target	log2 fold change
SNX9 (peptide sequence: HPVISESEVFQQFLNFRDEK, peptide start residue: 341) (UniProt Q9Y5X1)	0.621
UniProt Q9Y678 (peptide sequence: VFNETPINPR, peptide start residue: 33)	-0.183
SBNO2 (peptide sequence: ILGLEVHK, peptide start residue: 972) (UniProt Q9Y2G9)	0.299
LEMD3 (peptide sequence: THSKPLPPLTAK, peptide start residue: 289) (UniProt Q9Y2U8)	0.494
FBXO7 (peptide sequence: LGENVANIYK, peptide start residue: 290) (UniProt Q9Y3I1)	-0.206
RBM19 (peptide sequence: AETEKPANQKEPTTCHTVK, peptide start residue: 279) (UniProt Q9Y4C8)	0.815
UniProt Q9Y283 (peptide sequence: EQHVSSDLQGTNSR, peptide start residue: 673)	-0.34
GMEB1 (peptide sequence: STKFDLLISSAR, peptide start residue: 180) (UniProt Q9Y692)	-0.14
N6AMT1 (peptide sequence: GLQGTTALSR, peptide start residue: 190) (UniProt Q9Y5N5)	-0.238
SNX24 (peptide sequence: IEVLMNGR, peptide start residue: 24) (UniProt Q9Y343)	-0.188
AK6 (peptide sequence: WIEQWIKDHNS, peptide start residue: 162) (UniProt Q9Y3D8)	-0.0836
CTDP1 (peptide sequence: EGVPPTALFHPMPVLPK, peptide start residue: 748) (UniProt Q9Y5B0)	0.279
MRFAP1 (peptide sequence: CEKAEEK, peptide start residue: 97) (UniProt Q9Y605)	0.35
TRAPPC1 (peptide sequence: NGVCLHYSEWHR, peptide start residue: 12) (UniProt Q9Y5R8)	-0.325
UniProt Q9Y6D0 (peptide sequence: SYGNSSDSR, peptide start residue: 51)	0.135
WASF2 (peptide sequence: SSTIQDQK, peptide start residue: 102) (UniProt Q9Y6W5)	0.083
NOP16 (peptide sequence: YMVENHGEDYK, peptide start residue: 121) (UniProt Q9Y3C1)	0.169
NUB1 (peptide sequence: LEQLECLDDAEKK, peptide start residue: 294) (UniProt Q9Y5A7)	0.362
UniProt Q9Y3I0 (peptide sequence: EGYAWAEDKEHCEEYGR, peptide start residue: 182)	0.189
ZNF281 (peptide sequence: DVLLSSSSR, peptide start residue: 194) (UniProt Q9Y2X9)	-0.408
GDA (peptide sequence: DLHIQSHISENRDEVEAVK, peptide start residue: 234) (UniProt Q9Y2T3)	0.0575
CPQ (peptide sequence: LALLVDTVGPR, peptide start residue: 67) (UniProt Q9Y646)	-0.155
NISCH (peptide sequence: YFSEPLQDFWHQK, peptide start residue: 1198) (UniProt Q9Y2I1)	0.111
AMMECR1 (peptide sequence: IEFINEK, peptide start residue: 241) (UniProt Q9Y4X0)	0.18
STARD10 (peptide sequence: LAASTEPQGPRPVLGR, peptide start residue: 4) (UniProt Q9Y365)	-0.0566
HDGFL3 (peptide sequence: NTTSDLQK, peptide start residue: 191) (UniProt Q9Y3E1)	0.0616
UniProt Q9Y3U8 (peptide sequence: FVRDMIR, peptide start residue: 39)	-0.402

Not a retest: an excerpt of the list.
Target	log2 fold change
CTDP1 (peptide sequence: EGVPPTALFHPMPVLPK, peptide start residue: 748) (UniProt Q9Y5B0)	0.279
MRFAP1 (peptide sequence: CEKAEEK, peptide start residue: 97) (UniProt Q9Y605)	0.35
